The campaign covered roughly 300,000 compounds. About 3,700 (1.2%) were called active. The shares of active, inactive and inconclusive entries below differ from those in the screen. The call rests on the fitted dose curve; tested in HEK293 cells. A potency beside an inconclusive call is a rough fit, not a confirmed value.
Assay: qHTS for Inhibitors of binding or entry into cells for Lassa Virus; further: nearly all actives have a fitted effect of over 50% in size
Conditions: Lassa virus pseudotype entry inhibition, cell reporter; series mostly up to 37.9 µM
Potency means the concentration at half of the fitted maximal effect.

| SMILES | Potency |
| --- | --- |
| COc1ccc(CCNC(=O)c2cnn(-c3ccc(F)cc3)c2C2CCN(C(=O)OC(C)(C)C)CC2)cc1OC | inconclusive: 1.58 µM [inhibitor, full curve, poor fit] |
| Cc1ccc(-c2csc(NC(=O)C3CC(=O)N(Cc4ccco4)C3)n2)cc1 (configuration not stated) | inconclusive: 10 µM [inhibitor, single point] |
| COc1ccc(CC(=O)NCC(=O)Nc2ccccc2Br)cc1 | inconclusive: 8.91 µM [inhibitor, full curve, poor fit] |
| COc1ccc(CCNC(=O)c2ccc3c(c2)CCN3S(=O)(=O)c2ccccc2)cc1 | inconclusive: 3.55 µM [inhibitor, partial curve, poor fit] |
| CCOc1cc(CNC(=O)c2cc(-c3ccccc3)n[nH]2)cc(OCC)c1OCC | inactive |
| CN(CC(=O)Nc1ccc(F)cc1)C(=O)c1ccccc1Sc1ccccc1C#N | inconclusive: 17.8 µM [inhibitor, partial curve, poor fit] |
| CN(C)c1nc(C(=O)Nc2ccccc2)nc(N(C)C)n1 | inconclusive: 1.26 µM [inhibitor, partial curve, poor fit] |
| CCOc1ccc(C(=O)COC(=O)c2cc([N+](=O)[O-])ccc2N2CCOCC2)cc1 | inconclusive: 6.31 µM [inhibitor, partial curve] |
| COc1ccc(-c2noc(-c3ccccc3C(=O)N3CCOCC3)n2)cc1 | inactive |
| Cc1ccc(S(=O)(=O)N2CCN(C(=O)Cc3sc(C)nc3-c3ccc(F)cc3)CC2)c(C)c1 | inconclusive: 35.5 µM [inhibitor, single point] |
| Cc1nc2ccc(NC(=O)c3ccc([N+](=O)[O-])cc3)cc2[nH]1 | inconclusive: 5.62 µM [activator, single point] |
| O=C(Nc1nc(-c2cccs2)cs1)c1ccc(S(=O)(=O)N2CCCC2)cc1 | active: 20.6 µM |
| COc1ccc2[nH]c(=O)c(CN(C)C(=O)C3CCCCC3)cc2c1 | inconclusive: 8.91 µM [inhibitor, partial curve] |
| CCOc1ccccc1NC(=O)CSc1nc2ccccc2nc1N1CCOCC1 | inconclusive: 15.8 µM [inhibitor, single point] |
| COc1ccc(NC(=O)c2cc(Cl)ccc2NC(=O)c2ccco2)c(OC)c1 | inconclusive: 23.1 µM [inhibitor, single point] |
| O=C(CSc1nc2ccccc2s1)N1c2ccccc2Sc2ccc(Cl)cc21 | inactive |
| N[C@@H](Cn1ccc(=O)[nH]c1=O)C(=O)O | inconclusive: 0.164 µM [activator, full curve, poor fit] |
| CS(=O)c1nc(-c2ccc(Br)cc2)cc(-c2ccccc2)c1C#N (configuration not stated) | inconclusive: 4.11 µM [inhibitor, partial curve, poor fit] |
| CN1CCN(c2ccc(NC(=O)c3sc4ccccc4c3Cl)cc2)CC1 | inconclusive: 0.631 µM [activator, partial curve, poor fit] |
| O=C(Nc1ccccc1F)C(=O)Nc1cccc2ccccc12 | inconclusive: 0.355 µM [activator, full curve, poor fit] |
| O=C(c1ccc2ccccc2n1)N1CCN(c2ccccc2O)CC1 | inactive |

Two records picked at random from the list so far:

| SMILES | Potency |
| --- | --- |
| Cc1nc2ccc(NC(=O)c3ccc([N+](=O)[O-])cc3)cc2[nH]1 | inconclusive: 5.62 µM [activator, single point] |
| COc1ccc(CC(=O)NCC(=O)Nc2ccccc2Br)cc1 | inconclusive: 8.91 µM [inhibitor, full curve, poor fit] |

Following part

| SMILES | Potency |
| --- | --- |
| COc1ccc(N2CCN(C(=O)CSc3ncnc4scc(-c5ccc(C)cc5)c34)CC2)cc1 | inconclusive: 20.6 µM [inhibitor, partial curve, poor fit] |
| O=S(=O)(Nc1cccc(Cl)c1)c1cccc(-n2cnnn2)c1 | inconclusive: 5.01 µM [inhibitor, partial curve, poor fit] |
| O=C(c1ccc(S(=O)(=O)Nc2ccc(F)cc2)cc1)N1CCN(c2ccccn2)CC1 | inconclusive: 28.2 µM [inhibitor, partial curve, poor fit] |
| COc1cccc(O)c1CN1CCCC(C(=O)c2ccccc2SC)C1 (configuration not stated) | inconclusive: 35.5 µM [inhibitor, single point] |
| COc1cc(OC)cc(C(=O)NC(=S)NCCc2ccccc2)c1 | inactive |
| Cc1ccccc1NC(=O)CSc1c(C(C)C)cnc2c1c(=O)n(C)c(=O)n2C | inactive |
| Cc1cc(/C=C2\SC(N)=NC2=O)c(C)n1-c1ccccc1 | inconclusive: 10 µM [inhibitor, single point] |
| COc1ccc(N(CC(=O)NCCSCc2cccc(Cl)c2)S(C)(=O)=O)cc1Cl | inconclusive: 11.2 µM [inhibitor, partial curve, poor fit] |
| CC1=NN(c2ccccc2)C(=O)/C1=C/c1cc(C)n(C2CC2)c1C | inactive |
| CC(=O)NCC(=O)OCC(=O)c1ccc(C)cc1 | inconclusive: 5.62 µM [activator, partial curve, poor fit] |
| CCOC(=O)N1CC=C2C(C#N)=C(N)C(C#N)(C#N)[C@H](c3ccc(OC(C)C)c(OCC)c3)[C@H]2C1 | inactive |
| Cc1cccc(N2CCN(C(=O)NCc3ccc(F)cc3)CC2)c1C | inconclusive: 35.5 µM [inhibitor, single point] |
| CC(C)c1ccccc1OCC(=O)NN1C(=O)c2ccccc2C1=O | inconclusive: 35.5 µM [activator, single point] |
| CCN(CC)C(=O)Cn1nnc(-c2ccc(S(C)(=O)=O)cc2)n1 | inconclusive: 0.058 µM [activator, full curve, poor fit] |
| CC1=Nc2ccccc2/C1=C/c1c(O)n(C)c(=O)[nH]c1=O | inactive |
| O=C(CCl)Nc1cc(-c2ccccc2)nn1-c1ccccc1 | inconclusive: 29.1 µM [inhibitor, single point] |
| COc1ccc(C)cc1NC(=O)c1ccc2c(c1)OCO2 | inactive |
| CCOc1ccc(CNC(=O)c2ccc3c(Cl)c4c(nc3c2)CCCC4)cc1 | inactive |
| CCCSc1nnc(-c2ccccc2N)c(=O)[nH]1 | inconclusive: 1.03 µM [activator, full curve, poor fit] |
| CCOC(=O)N1CCN(C(=O)c2ccc3c(c2)N(C)C(=O)/C(=C\c2ccc(OCC)c(OC)c2)S3)CC1 | active: 5.01 µM |
| COc1ccc(CCN(C)c2ccc(S(=O)(=O)N3CCCC3)cc2[N+](=O)[O-])cc1OC | inconclusive: 31.6 µM [inhibitor, partial curve, poor fit] |
